Taken from: PubChem BioAssay AID686943 (Drosophila RNAi Screening Center, 2013)

Aim: 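Fly genes whose loss alters ERK activation after insulin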 (primary screen)
Cells: Drosophila S2R+ haemocyte-like cells expressing YFP-tagged ERK (Rolled)
Knock-down reagent: long dsRNA against Drosophila genes
Treatment: insulin stimulation versus unstimulated cells; dose and duration not given
Measurement: 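Antibody staining for doubly phosphorylated ERK divided by ERK-YFP signal, as plate z-scores, in insulin-treated and untreated cells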
Reading the numbers: replicate 1, z-score of dpERK with insulin and replicate 2, z-score of dpERK with insulin: higher = more active ERK per ERK-YFP after insulin
The deposit covers about 23,000 reagents; this is an unselected part of those with a known target gene and a result. 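Extra replicates exist only for a retested subset of genes; insulin dose and duration not given; both raised and lowered dpERK matter.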 Names joined by + are all predicted targets of the reagent. Further read-outs or replicates are left out here. Not stated in the record: the amount of reagent, the time to read-out.

CG8837 [DRSC00711]
- replicate 1, z-score of dpERK with insulin: 0.47
- replicate 2, z-score of dpERK with insulin: -0.27

CG40006 [DRSC03787]
- replicate 1, z-score of dpERK with insulin: -0.77
- replicate 2, z-score of dpERK with insulin: -0.01

CG40006 [DRSC03809]
- replicate 1, z-score of dpERK with insulin: 1.59
- replicate 2, z-score of dpERK with insulin: 0.55

CG40006 [DRSC03814]
- replicate 1, z-score of dpERK with insulin: -1.34
- replicate 2, z-score of dpERK with insulin: 0.07

CG40006 [DRSC03817]
- replicate 1, z-score of dpERK with insulin: 0.92
- replicate 2, z-score of dpERK with insulin: 0.41

Psf2 (Partner of Sld Five 2) [DRSC00516]
- replicate 1, z-score of dpERK with insulin: 3.51
- replicate 2, z-score of dpERK with insulin: -1.56

CG32572 [DRSC19525]
- replicate 1, z-score of dpERK with insulin: -0.07
- replicate 2, z-score of dpERK with insulin: 0.21

CG32572 [DRSC19526]
- replicate 1, z-score of dpERK with insulin: -0.13
- replicate 2, z-score of dpERK with insulin: -0.12

Spn42Da (Serpin 42Da) [DRSC05025]
- replicate 1, z-score of dpERK with insulin: -0.03
- replicate 2, z-score of dpERK with insulin: -0.02

bnk (bottleneck) [DRSC16912]
- replicate 1, z-score of dpERK with insulin: 0.42
- replicate 2, z-score of dpERK with insulin: -0.1

tou (toutatis) [DRSC06006]
- replicate 1, z-score of dpERK with insulin: 0.09
- replicate 2, z-score of dpERK with insulin: -0.31

tou (toutatis) [DRSC22710]
- replicate 1, z-score of dpERK with insulin: 0.41
- replicate 2, z-score of dpERK with insulin: -0.57

Swip-1 (Swiprosin-1) [DRSC02083]
- replicate 1, z-score of dpERK with insulin: 0.12
- replicate 2, z-score of dpERK with insulin: 0.18

Swip-1 (Swiprosin-1) [DRSC02084]
- replicate 1, z-score of dpERK with insulin: -0.77
- replicate 2, z-score of dpERK with insulin: 0.5

CG4836 [DRSC15659]
- replicate 1, z-score of dpERK with insulin: 1.5
- replicate 2, z-score of dpERK with insulin: 0.83

CG4836 [DRSC22066]
- replicate 1, z-score of dpERK with insulin: 0.12
- replicate 2, z-score of dpERK with insulin: -0.17

defl (deflated) [DRSC10300]
- replicate 1, z-score of dpERK with insulin: -1.46
- replicate 2, z-score of dpERK with insulin: -3.8

MCTS1 (Malignant T cell amplified sequence 1) [DRSC18393]
- replicate 1, z-score of dpERK with insulin: -0.32
- replicate 2, z-score of dpERK with insulin: 0.35

mod(mdg4) + pre-mod(mdg4)-U [DRSC13476]
- replicate 1, z-score of dpERK with insulin: -2.49
- replicate 2, z-score of dpERK with insulin: 0.08

CG10734 [DRSC05998]
- replicate 1, z-score of dpERK with insulin: -0.83
- replicate 2, z-score of dpERK with insulin: -0.3

Spn47C (Serpin 47C) [DRSC07030]
- replicate 1, z-score of dpERK with insulin: 0.49
- replicate 2, z-score of dpERK with insulin: 0.21

nompB (no mechanoreceptor potential B) [DRSC03701]
- replicate 1, z-score of dpERK with insulin: -1.11
- replicate 2, z-score of dpERK with insulin: 0.13

nompB (no mechanoreceptor potential B) [DRSC03731]
- replicate 1, z-score of dpERK with insulin: 0.55
- replicate 2, z-score of dpERK with insulin: 0.91

Mesh1 (Metazoan SpoT homolog-1) [DRSC14433]
- replicate 1, z-score of dpERK with insulin: 0.04
- replicate 2, z-score of dpERK with insulin: 0

sxe2 (sex-specific enzyme 2) [DRSC15692]
- replicate 1, z-score of dpERK with insulin: -0.4
- replicate 2, z-score of dpERK with insulin: -0.67

CG15459 [DRSC20530]
- replicate 1, z-score of dpERK with insulin: 0.56
- replicate 2, z-score of dpERK with insulin: 0.01

CG15459 [DRSC21383]
- replicate 1, z-score of dpERK with insulin: -0.31
- replicate 2, z-score of dpERK with insulin: 0.88

mRpL24 (mitochondrial ribosomal protein L24) [DRSC03113]
- replicate 1, z-score of dpERK with insulin: 0.57
- replicate 2, z-score of dpERK with insulin: 0.33

Rlb1 [DRSC16826]
- replicate 1, z-score of dpERK with insulin: 0.4
- replicate 2, z-score of dpERK with insulin: 0.07

Osi10b (Osiris 10b) [DRSC12279]
- replicate 1, z-score of dpERK with insulin: 2.2
- replicate 2, z-score of dpERK with insulin: 0.87

CycG (Cyclin G) [DRSC14324]
- replicate 1, z-score of dpERK with insulin: -1.66
- replicate 2, z-score of dpERK with insulin: -1.39

Sorted by “replicate 2, z-score of dpERK with insulin” (low to high): some entries from above
CG40006 [DRSC03814]
- replicate 1, z-score of dpERK with insulin: -1.34
- replicate 2, z-score of dpERK with insulin: 0.07

CG40006 [DRSC03817]
- replicate 1, z-score of dpERK with insulin: 0.92
- replicate 2, z-score of dpERK with insulin: 0.41

CG40006 [DRSC03809]
- replicate 1, z-score of dpERK with insulin: 1.59
- replicate 2, z-score of dpERK with insulin: 0.55
